Test results published in patent US20160030407A1, “Method of Treating Inflammatory Lung Disease” (priority 2010, published 2016).
Values joined by “and” are separate entries in the source; they are usually repeats but may differ in a detail not shown here. Equal values may be shown once. This continues a long series; more values of the same kind are listed elsewhere.

How the values were obtained:
[1] = Plasma toxicokinetics after single i.v. bolus; assay type: in vivo, Sprague-Dawley rats; settings: Rat Plasma, Anatabine 1.0 mg/kg
Method: (§1) Six rats (3 males and 3 females) were dosed per dose group. […] Plasma and brain homogenates were stored at −80° C. until analysis.
(§2) An additional 48 rats (24 males and 24 females) received a single intravenous dose via the tail vein at the same doses as mentioned above. At 30 and 360 minutes post administration, 6 rats (3 males and 3 females) per dose group, per time point were euthanized, bled via cardiac puncture, and perfused, and brains were collected. The brains were homogenized. Blood was spun, and plasma was collected. Plasma and brain homogenate were stored at −80° C.
Four aliquots of each dose level formulation were collected and stored at −80° C. The test compound, corresponding dose level, number of animals, and sample collection times for Phase I of the study are shown in Table 3. The test compound, corresponding dose level, number of animals, and sample collection times for Phase II of the study are shown in Table 4. The physical signs of each animal were monitored following administration of the test compound.
(§3) The animals were weighed prior to dosing and received a single i.v. dose of either test compound at a volume of 5 mL/kg. Blood was collected via the venus plexus (retro-orbital) into tubes containing (K2) EDTA. No more than 0.5 mL was collected per time point. […] The brain was removed, weighed, homogenized in sterile 0.9% saline at a volume equal to its weight, and stored at −80° C.
Plasma was separated according to the instructions for MICROTAINER® brand collection tubes (3 minutes, 2000×g). Plasma was decanted into microfuge tubes and stored at −80° C. Remaining test compound was stored at −80° C.
(§4) The amount of the test agent in the supernatant was determined by liquid chromatography tandem mass spectrometry (LC/MS/MS).
(§5) Analysis. Samples were analyzed by LC/MS/MS using an Agilent 6410 mass spectrometer coupled with an Agilent 1200 high pressure liquid chromatography (HPLC) and a CTC PAL chilled autosampler, all controlled by MassHunter software (Agilent). After separation on a hydrophilic interaction liquid chromatography (HILIC) HPLC column (Sepax) using an acetonitrile-ammonium acetate/acetic acid gradient system, peaks were analyzed by mass spectrometry (MS) using ESI ionization in multiple reaction monitoring (MRM) mode. MassHunter software was used to calculate the concentration of the test compounds in samples from the peak area using the appropriate calibration curves.

[2] = Brain extract concentrations after single i.v. bolus; assay type: in vivo, Sprague-Dawley rats; settings: for Concentration in rat brain extract: individual rats; for Avg. Conc. (Combined Male and Female) / Avg. Conc. (Male or Female): Rat Brain
Method: as §1, §2, §3, §4, §5

With `C1=CCC(c2cccnc2)NC1` (racemic) [Anatabine, 1,2,3,6-tetrahydro-[2,3′]bipyridinyl] the “Avg. Conc. (Male or Female)” value ([1]; female, 0.5 hr (2nd line)) was 368.0 ng/mL, the “Avg. Conc. (Male or Female)” value ([1]; female, 1 hr) was 229.0 ng/mL and the “Avg. Conc. (Male or Female)” value ([1]; female, 2 hr) was 163.7 ng/mL. The “Avg. Conc. (Male or Female)” value ([1]; female, 4 hr) was 60.7 ng/mL, the “Avg. Conc. (Male or Female)” value ([1]; female, 6 hr (1st line)) was 29.3 ng/mL and the “Avg. Conc. (Male or Female)” value ([1]; female, 6 hr (2nd line)) was 23.0 ng/mL. The “Avg. Conc. (Male or Female)” value ([1]; female, 8 hr) was 17.7 ng/mL, the “Avg. Conc. (Male or Female)” value ([1]; male, 0.5 hr (2nd line)) was 399.0 ng/mL and the “Avg. Conc. (Male or Female)” value ([1]; male, 1 hr) was 233.7 ng/mL. The “Avg. Conc. (Male or Female)” value ([1]; male, 4 hr) was 42.3 ng/mL, the “Avg. Conc. (Male or Female)” value ([1]; male, 6 hr (1st line)) was 18.0 ng/mL and the “Avg. Conc. (Male or Female)” value ([1]; male, 6 hr (2nd line)) was 27.0 ng/mL. The “Avg. Conc. (Male or Female)” value ([1]; male, 8 hr) was 7.7 ng/mL, the “Concentration in rat brain extract” value ([2]; Anatabine 0.1 mg/kg dose group, time point 0.5 hr) was 19 ng/mL and 21 ng/mL and 34 ng/mL and 25 ng/mL and 30 ng/mL and the “Concentration in rat brain extract” value ([2]; Anatabine 0.1 mg/kg dose group, time point 6 hr) was 3 ng/mL and 5 ng/mL and 4 ng/mL and 2 ng/mL. For the same compound, the “Concentration in rat brain extract” value ([2]; Anatabine 0.1 mg/kg dose group, time point 24 hr) was 3 ng/mL and 2 ng/mL, the “Concentration in rat brain extract” value ([2]; Anatabine 0.75 mg/kg dose group, time point 6 hr) was 16 ng/mL and 28 ng/mL and 19 ng/mL and 17 ng/mL and 27 ng/mL and 20 ng/mL and the “Concentration in rat brain extract” value ([2]; Anatabine 1.0 mg/kg dose group, time point 6 hr) was 3 ng/mL and 4 ng/mL (2×) and 8 ng/mL (2×). The “Concentration in rat brain extract” value ([2]; Anatabine 1.0 mg/kg dose group, time point 24 hr) was 3 ng/mL and 2 ng/mL, the “Avg. Conc. (Combined Male and Female)” value ([2]; Anatabine 0.1 mg/kg, 6 hr) was 3.5 ng/g and the “Avg. Conc. (Combined Male and Female)” value ([2]; Anatabine 0.1 mg/kg, 24 hr) was 2.5 ng/g. The “Avg. Conc. (Male or Female)” value ([2]; Anatabine 0.1 mg/kg, female, 0.5 hr) was 29.7 ng/g, the “Avg. Conc. (Male or Female)” value ([2]; Anatabine 0.1 mg/kg, female, 6 hr) was 3.7 ng/g and the “Avg. Conc. (Male or Female)” value ([2]; Anatabine 0.1 mg/kg, female, 24 hr) was 2.0 ng/g. For the same compound, the “Avg. Conc. (Male or Female)” value ([2]; Anatabine 0.1 mg/kg, male, 0.5 hr) was 20.0 ng/g, the “Avg. Conc. (Male or Female)” value ([2]; Anatabine 0.1 mg/kg, male, 6 hr) was 3.0 ng/g and the “Avg. Conc. (Male or Female)” value ([2]; Anatabine 0.1 mg/kg, male, 24 hr) was 3.0 ng/g. The “Avg. Conc. (Combined Male and Female)” value ([2]; Anatabine 0.75 mg/kg, 0.5 hr) was 295.3 ng/g, the “Avg. Conc. (Combined Male and Female)” value ([2]; Anatabine 0.75 mg/kg, 6 hr) was 21.2 ng/g and the “Avg. Conc. (Male or Female)” value ([2]; Anatabine 0.75 mg/kg, female, 0.5 hr) was 314.7 ng/g. The “Avg. Conc. (Male or Female)” value ([2]; Anatabine 0.75 mg/kg, female, 6 hr) was 21.0 ng/g, the “Avg. Conc. (Male or Female)” value ([2]; Anatabine 0.75 mg/kg, male, 0.5 hr) was 276.0 ng/g and the “Avg. Conc. (Male or Female)” value ([2]; Anatabine 0.75 mg/kg, male, 6 hr) was 21.3 ng/g. The “Avg. Conc. (Combined Male and Female)” value ([2]; Anatabine 1.0 mg/kg, 0.5 hr) was 334.5 ng/g, the “Avg. Conc. (Combined Male and Female)” value ([2]; Anatabine 1.0 mg/kg, 6 hr) was 5.4 ng/g and the “Avg. Conc. (Combined Male and Female)” value ([2]; Anatabine 1.0 mg/kg, 24 hr) was 2.5 ng/g. The “Avg. Conc. (Male or Female)” value ([2]; Anatabine 1.0 mg/kg, female, 0.5 hr) was 346.0 ng/g, the “Avg. Conc. (Male or Female)” value ([2]; Anatabine 1.0 mg/kg, female, 6 hr) was 6.0 ng/g and the “Avg. Conc. (Male or Female)” value ([2]; Anatabine 1.0 mg/kg, male, 0.5 hr) was 323.0 ng/g. For the same compound, the “Avg. Conc. (Male or Female)” value ([2]; Anatabine 1.0 mg/kg, male, 6 hr) was 5.0 ng/g, the “Avg. Conc. (Male or Female)” value ([2]; Anatabine 1.0 mg/kg, male, 24 hr) was 2.5 ng/g and the “Mean concentration in rat brain extracts” value ([2]; single i.v. 0.1 mg/kg, female, 0.5 hr) was 29.7 ± 4.5 ng/g. For the same compound, the “Mean concentration in rat brain extracts” value ([2]; single i.v. 0.1 mg/kg, female, 6 hr) was 3.7 ± 1.5 ng/g, the “Mean concentration in rat brain extracts” value ([2]; single i.v. 0.1 mg/kg, female, 24 hr) was 2.0 ng/g and the “Mean concentration in rat brain extracts” value ([2]; single i.v. 0.1 mg/kg, male, 0.5 hr) was 20.0 ± 1.4 ng/g. The “Mean concentration in rat brain extracts” value ([2]; single i.v. 0.1 mg/kg, male, 6 hr) was 3.0 ng/g, the “Mean concentration in rat brain extracts” value ([2]; single i.v. 0.1 mg/kg, male, 24 hr) was 3.0 ng/g and the “Mean concentration in rat brain extracts” value ([2]; single i.v. 0.75 mg/kg, female, 0.5 hr) was 314.7 ± 67.9 ng/g. The “Mean concentration in rat brain extracts” value ([2]; single i.v. 0.75 mg/kg, female, 6 hr) was 21.0 ± 6.2 ng/g, the “Mean concentration in rat brain extracts” value ([2]; single i.v. 0.75 mg/kg, male, 0.5 hr) was 276.0 ± 37.0 ng/g and the “Mean concentration in rat brain extracts” value ([2]; single i.v. 0.75 mg/kg, male, 6 hr) was 21.3 ± 5.1 ng/g. The “Mean concentration in rat brain extracts” value ([2]; single i.v. 1.0 mg/kg, female, 0.5 hr) was 346.0 ± 56.7 ng/g, the “Mean concentration in rat brain extracts” value ([2]; single i.v. 1.0 mg/kg, female, 6 hr) was 6.0 ± 2.8 ng/g and the “Mean concentration in rat brain extracts” value ([2]; single i.v. 1.0 mg/kg, male, 0.5 hr) was 323.0 ± 35.9 ng/g. The “Mean concentration in rat brain extracts” value ([2]; single i.v. 1.0 mg/kg, male, 6 hr) was 5.0 ± 2.6 ng/g and the “Mean concentration in rat brain extracts” value ([2]; single i.v. 1.0 mg/kg, male, 24 hr) was 2.5 ± 0.7 ng/g.
